For this assay, the target named is DR_2577, the main S-layer protein of Deinococcus radiodurans (Deinococcus radiodurans (endogenous in strain R1, ATCC 13939)) (UniProt Q9RRB6). Kind of assay: SDS-PAGE of unboiled samples; 7% polyacrylamide/urea gel, SDS and β-mercaptoethanol, samples not boiled; 10 µl protein at 0.2 mg/ml incubated 10 min at 25°C; neutral and subacid pH (7.0, 6.0), with or without EDTA, Cu2+, Ca2+; both purified.

Results are given in words; binding and its absence hold for the method and conditions named. Some results given as binding are weak or reduced against the parent protein; the word gives no strength.

B1: DR_2577, the main S-layer protein of Deinococcus radiodurans (natural protein, UniProt Q9RRB6 23-1167, looked up)
chain: APVSAPQVPALTDVPAGHWAKDAIDRLVSRGVILGYPDGTFRGTQNLTRYEAAIIIARLLDQMRDGETPAGMTAEDMTALQNAIQELAADLAALGVRVSDLEANAVSKDDFARLEARIEEVAAAGGEQGATEALQGQIDDLTARVDEYDALRADVDDNASSIAALNDLTVLLNQDILDLQDRVSAVEAAQADFVQRSDFDALGGRVTTVETRVETVNNSLTGRIAALERNAFSVKPSLTIGYSVSRTSRNFDVDRLFPLNADGTVANNAFTSGGIDTDTGAQRRDFGDFGNASDPVVAGAAGLYGFADGVSYTVYFTDGSTATFDGLNPADYKVPTGKVIDTTKGRNGFGFNNLARYKEGSTDIGISLGFDTSGQFSQVTSGTGGSLFSTAGRLQVNQIDLNFGLVTGLPSDAYVDTNGNGKKDDGEATGRGTYLGSGGTAAILRDPAGNVYRPVFFRFKNATTQFSVGNNPVIVTLGQQQKFYFSDYVFDNNYDGRGDGFTVTVDGSNVPVIGAWKPQIKGVYGSRSGLDGTAEAGYGVYYRGVRAQITPVGTLTAGIHYAQEGRDMFGAAQNTTSTPSDVTTYGADLHGKAFGVELHSEYATSRVRPNTANAAVQTSNAFYARVATRKDNLAFDLNTPAAKFGNDTFGVSLYDLNYRKIDAGYNNVAGISEYGYGSYSRTSAQNIAYNPDTGVTAPFANLDRQAYTDANNDGTSDRNADGTVVATNTKIGQMGFGVKAAANLGPVAIGGYYDTSTGANGDNANRMTEAGGSAKVAYSIFSLRGTYNTLDSNRPQIYRDAAGTQIIGDAKVRRYAVQADVTPGLGLFVGAYYRDVNVNGVRSTTDRGLLGRGYLASSFEPGVGNNAYRTGLRCADNNFGTGTRDIDGVGGVLNPAVNLDQSRTATCFTSYGVEAGHAGDNANALVKDLFFRVGYSRVYVPTTATATTGDFSGSVTYGDARYDRKVGVANVRLAGSFSTTNTQLDSRPAGTRGAVGLIVRTDPLENVPFRPQFNGQVGYYTADNRVAAGNYNANATKYGAGVVLNDFLLPQTKIGVRYDGYMAQNRQYTPFDGDGTQGYFSDANNNRRTNLNGVYVEGAYQDLIFSYGTYTLSQKDLNGVEYGSGINNGQPARGQTFKISYKVNF
notes: DR_2577 (SlpA), main S-layer protein of Deinococcus radiodurans strain R1; The introduction describes it as a homo-hexamer of ~760 kDa (trimer of dimers); the dimers are said (cited work) to be held by intermolecular disulfide bonds; also called SlpA
Take B1: the binding entry is listed as “binds”.
